Experimental data published in paper PMC9217950.
Results are given in words; binding and its absence hold for the method and conditions named. Binding seen in cells or lysates may run through a third protein. A yes stands for co-enrichment or nearness to the bait. Other partners may have been found. Sequences can lack the tags named with a protein. Blank lines part the entries; values can stand above or below the binder they belong to.

Key:
AGIA-AirID-IκBα (human) = AGIA-AirID-IκBα (human) (UniProt P25963); assay: proximity labelling; in HEK293T cells stably expressing AGIA-AirID-IκBα, transfected 24 h, 50 µM D-biotin 2 h; lysis in 1% SDS, boiled; streptavidin bead pull-down (STA-PDA), anti-FLAG immunoblot
[1] = molecular target: T1, FLAG-GST-REL (human), Q04864; assay: proximity labelling; CF-PPiD on the diversity protein array: 118 FG-tagged human proteins on glutathione magnetic beads, 1536-well plate, 1x and 3x dual spots; translational mixture of AirID, AirID-TP53 or AirID-IκBα with biotin and ATP; HRP-conjugated anti-biotin antibody; only the target purified; conditions: remark: other sources report otherwise
T1 chain: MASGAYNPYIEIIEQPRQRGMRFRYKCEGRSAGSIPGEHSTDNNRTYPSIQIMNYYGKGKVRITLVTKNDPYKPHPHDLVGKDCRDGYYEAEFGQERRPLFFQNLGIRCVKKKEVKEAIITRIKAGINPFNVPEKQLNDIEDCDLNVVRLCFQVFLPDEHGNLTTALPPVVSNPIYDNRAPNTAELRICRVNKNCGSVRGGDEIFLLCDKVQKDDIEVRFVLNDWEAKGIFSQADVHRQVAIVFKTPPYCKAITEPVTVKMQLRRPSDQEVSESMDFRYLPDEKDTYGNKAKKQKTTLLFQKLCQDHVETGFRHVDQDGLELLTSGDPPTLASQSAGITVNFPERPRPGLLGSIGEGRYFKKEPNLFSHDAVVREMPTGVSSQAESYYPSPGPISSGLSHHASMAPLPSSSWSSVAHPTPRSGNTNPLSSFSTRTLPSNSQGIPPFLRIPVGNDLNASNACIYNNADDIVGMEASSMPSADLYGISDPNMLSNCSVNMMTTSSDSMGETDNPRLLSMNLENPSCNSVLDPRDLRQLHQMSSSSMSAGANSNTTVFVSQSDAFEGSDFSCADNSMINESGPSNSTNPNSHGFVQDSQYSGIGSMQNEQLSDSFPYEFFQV

binding (AGIA-AirID-IκBα (human)): binds
B1: PRDX3 in pCAGGS-MCS-FLAG (protein, UniProt P30048 62-256)
chain: APAVTQHAPYFKGTAVVNGEFKDLSLDDFKGKYLVLFFYPLDFTFVCPTEIVAFSDKANEFHDVNCEVVAVSVDSHFSHLAWINTPRKNGGLGHMNIALLSDLTKQISRDYGVLLEGSGLALRGLFIIDPNGVIKHLSVNDLPVGRSVEETLRLVKAFQYVETHGEVCPANWTPDSPTIKPSPAASKEYFQKVNQ

binding [1]: binds
B2: AirID N-terminally fused to IκBα, P25963 1-317 (protein)
chain: MFQAAERPQEWAMEGPRDGLKKERLLDDRHDSGLDSMKDEEYEQMVKELQEIRLEPQEVPRGSEPWKQQLTEDGDSFLHLAIIHEEKALTMEVIRQVKGDLAFLNFQNNLQQTPLHLAVITNQPEIAEALLGAGCDPELRDFRGNTPLHLACEQGCLASVGVLTQSCTTPHLHSILKATNYNGHTCLHLASIHGYLGIVELLVSLGADVNAQEPCNGRTALHLAVDLQNPDLVSLLLKCGADVNRVTYQGYSPYQLTWGRPSTRIQQQLGQLTLENLQMLPESEDEESYDTESEFTEFTEDELPYDDCVFGGQRLTL
